Data reported in the supplement of paper PMC10331698.
± gives the standard deviation of the averaged measurements. Most entries show no effect beyond the scatter of the controls.

Tests used:
Test in all cases: level (log10 ratio to DMSO vehicle control); higher = higher biomarker level / cell amount than vehicle control
[1] = compound: C=C(C)C(=O)OCC(F)(F)C(F)(F)C(F)(F)F [2,2,3,3,4,4,4-Heptafluorobutyl methacrylate]; settings: 2200 nM; in DMSO
Description: (§1)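 BioMAP Diversity Plus panel of 12 human primary cell co-culture systems (3C, 4H, LPS, SAg, BT, BF4T, BE3C, CASM3C, HDF3CGF, KF3CT, MyoF, Mphg). Compounds were added 1 h before stimulation and left for 24 h (MyoF 48 h; BT 72 h for soluble read-outs or 6 d for IgG). Biomarkers were read by ELISA, cytotoxicity by SRB, PBMC viability and proliferation by Alamar Blue. Each well value was divided by the mean of 8 DMSO control wells on the same plate and log10 transformed; duplicate blinded samples were tested at 4 concentrations.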

[2] = compound: C=CC(=O)OCC(F)(F)C(F)(F)C(F)(F)C(F)(F)COC(=O)C=C [1H,1H,6H,6H-Perfluorohexane-1,6-diol diacrylate]; settings: 2200 nM; in DMSO
Description: as §1

[3] = compound: FC(F)(F)C(F)(F)C(F)(F)C(F)(F)C(F)(F)C(F)(F)C(F)(F)CCI [1-Iodo-1H,1H,2H,2H-perfluorononane]; settings: in DMSO
Description: as §1

[4] = compound: FC(F)(F)C(F)(F)C(F)(F)C(F)(F)C(F)(F)C(F)(F)C(F)(F)I [1-Iodopentadecafluoroheptane]; settings: in DMSO
Description: as §1

[5] = compound: FC(F)C(F)(F)COCC1CO1 [((2,2,3,3-Tetrafluoropropoxy)methyl)oxirane]; settings: 2200 nM; in DMSO
Description: as §1

Perfluorooctanamide = compound: NC(=O)C(F)(F)C(F)(F)C(F)(F)C(F)(F)C(F)(F)C(F)(F)C(F)(F)F [Perfluorooctanamide]; settings: 2200 nM; in DMSO
Description: as §1

Perfluoroundecanoic acid = compound: O=C(O)C(F)(F)C(F)(F)C(F)(F)C(F)(F)C(F)(F)C(F)(F)C(F)(F)C(F)(F)C(F)(F)C(F)(F)F [Perfluoroundecanoic acid]; settings: in DMSO
Description: as §1

[6] = compound: O=C(O)C(F)(F)C(F)(F)C(F)(F)C(F)(F)C(F)(F)C(F)(F)C(F)(F)C(F)F [9-H-Perfluorononanoic acid]; settings: 2200 nM; in DMSO
Description: as §1

Perfluorobutanoic acid = compound: O=C(O)C(F)(F)C(F)(F)C(F)(F)F [Perfluorobutanoic acid]; settings: 2200 nM; in DMSO
Description: as §1

Perfluoropropanoic acid = compound: O=C(O)C(F)(F)C(F)(F)F [Perfluoropropanoic acid]; settings: 2200 nM; in DMSO
Description: as §1

[7] = compound: O=C(O)C(F)(F)C(F)(F)OC(F)(F)F [Perfluoro-3-methoxypropanoic acid]; settings: 2200 nM; in DMSO
Description: as §1

[8] = compound: O=C(O)C(F)(F)OC(F)(F)C(F)(F)OC(F)(F)C(=O)O [Perfluoro-3,6-dioxaoctane-1,8-dioic acid]; settings: 2200 nM; in DMSO
Description: as §1

[9] = compound: O=C(O)C(F)(F)OC(F)(F)C(F)(F)OC(F)(F)C(F)(F)C(F)(F)C(F)(F)F [Perfluoro-3,6-dioxadecanoic acid]; settings: 2200 nM; in DMSO
Description: as §1

[10] = compound: O=C(O)C=CC(F)(C(F)(F)F)C(F)(F)F [3-(Perfluoroisopropyl)-2-propenoic acid]; settings: in DMSO
Description: as §1

[11] = compound: O=P(O)(O)CCC(F)(F)C(F)(F)C(F)(F)C(F)(F)C(F)(F)C(F)(F)C(F)(F)C(F)(F)F [((Perfluorooctyl)ethyl)phosphonic acid]; settings: 2200 nM; in DMSO
Description: as §1

[12] = compound: O=S(=O)(Cl)C(F)(F)C(F)(F)C(F)(F)C(F)(F)C(F)(F)C(F)(F)C(F)(F)C(F)(F)F [Perfluoro-1-octanesulfonyl chloride]; settings: 2200 nM; in DMSO
Description: as §1

[13] = compound: OCC(F)(F)C(F)(F)C(F)(F)C(F)(F)C(F)(F)C(F)(F)C(F)(F)C(F)(F)C(F)(F)C(F)(F)C(F)(F)F [11:1 Fluorotelomer alcohol]; settings: in DMSO
Description: as §1

[14] = compound: OCCC(F)(F)C(F)(F)C(F)(F)C(F)(F)C(F)(F)C(F)(F)C(F)(F)C(F)(F)F [8:2 Fluorotelomer alcohol]; settings: 2200 nM; in DMSO
Description: as §1

| Test System | level (log10) [1] | level (log10) [2] | level (log10) ([3]; 740 nM) | level (log10) ([3]; 2200 nM) | level (log10) ([3]; 6700 nM) | level (log10) ([3]; 20000 nM) | level (log10) ([4]; 740 nM) | level (log10) ([4]; 2200 nM) | level (log10) ([4]; 6700 nM) | level (log10) ([4]; 20000 nM) | level (log10) [5] | level (log10) (Perfluorooctanamide) | level (log10) (Perfluoroundecanoic acid; 740 nM) | level (log10) (Perfluoroundecanoic acid; 2200 nM) | level (log10) [6] | level (log10) (Perfluorobutanoic acid) | level (log10) (Perfluoropropanoic acid) | level (log10) [7] | level (log10) [8] | level (log10) [9] | level (log10) ([10]; 2200 nM) | level (log10) ([10]; 6700 nM) | level (log10) ([10]; 20000 nM) | level (log10) ([10]; 60000 nM) | level (log10) [11] | level (log10) [12] | level (log10) ([13]; 370 nM) | level (log10) ([13]; 1100 nM) | level (log10) ([13]; 3300 nM) | level (log10) ([13]; 10000 nM) | level (log10) [14] |
| --- | --- | --- | --- | --- | --- | --- | --- | --- | --- | --- | --- | --- | --- | --- | --- | --- | --- | --- | --- | --- | --- | --- | --- | --- | --- | --- | --- | --- | --- | --- | --- |
| LPS:CD106/VCAM-1 | -0.026 ± 0.0099 | -0.017 ± 0.014 | 0.003 ± 0.024 | 0.014 ± 0.0057 | 0.002 ± 0.011 | -0.0155 ± 0.039 | 0.016 ± 0.021 | 0.0075 ± 0.029 | 0.0045 ± 0.016 | -0.005 ± 0.0071 | -0.0015 ± 0.033 | 0.0065 ± 0.023 | 0.0105 ± 0.016 | 0.015 ± 0.033 | -0.0005 ± 0.012 | -0.004 ± 0.0028 | -0.0065 ± 0.005 | -0.0015 ± 0.015 | 0.002 ± 0.023 | -0.0095 ± 0.015 | -0.0045 ± 0.0064 | 0.003 ± 0.018 | -0.023 ± 0.013 | -0.018 ± 0.021 | 0.005 ± 0.013 | -0.017 ± 0.011 | -0.033 ± 0.0014 | -0.025 ± 0.0042 | -0.025 ± 0.02 | -0.015 ± 0.0028 | -0.034 ± 0.03 |
| LPS:CD141/Thrombomodulin | -0.011 ± 0.016 | -0.0075 ± 0.013 | 0.0025 ± 0.028 | -0.029 ± 0.03 | -0.0265 ± 0.0021 | -0.024 ± 0.0057 | 0.0245 ± 0.044 | -0.013 | 0.0215 ± 0.023 | -0.024 ± 0.075 | -0.0055 ± 0.019 | 0.0185 ± 0.005 | 0.0185 ± 0.0021 | 0.036 ± 0.013 | 0.0405 ± 0.0035 | 0.0075 ± 0.069 | -0.014 ± 0.044 | 0.027 ± 0.067 | 0.001 ± 0.038 | -0.01 ± 0.0014 | -0.022 ± 0.025 | -0.024 ± 0.037 | -0.022 ± 0.0057 | -0.036 ± 0.02 | -0.003 ± 0.016 | -0.0305 ± 0.056 | -0.0265 ± 0.021 | -0.0285 ± 0.015 | -0.0185 ± 0.012 | -0.0035 ± 0.013 | -0.0285 ± 0.12 |
| LPS:CD142/Tissue Factor | 0.001 ± 0.011 | 0.0155 ± 0.025 | 0.0395 ± 0.07 | 0.052 ± 0.044 | 0.046 ± 0.073 | -0.0215 ± 0.09 | -0.035 ± 0.15 | -0.031 ± 0.088 | 0.0105 ± 0.07 | 0.036 ± 0.02 | 0.029 ± 0.033 | -0.0115 ± 0.052 | 0.0795 ± 0.1 | 0.001 ± 0.0085 | -0.0405 ± 0.015 | -0.001 ± 0.0099 | 0.0075 ± 0.0035 | 0.0155 ± 0.04 | 0.021 ± 0.038 | 0.008 ± 0.0099 | 0.0085 ± 0.029 | 0.0105 ± 0.0078 | -0.021 ± 0.025 | 0.006 ± 0.021 | 0.0025 ± 0.0092 | -0.053 ± 0.068 | 0.047 ± 0.0014 | 0.056 ± 0.0028 | 0.084 ± 0.03 | 0.0995 ± 0.00071 | -0.033 ± 0.095 |
| LPS:CXCL8/IL-8 | -0.013 ± 0.017 | -0.0105 ± 0.049 | 0.023 ± 0.016 | 0.0235 ± 0.021 | 0.005 ± 0.072 | -0.001 ± 0.082 | 0.0145 ± 0.044 | -0.0045 ± 0.042 | 0.026 ± 0.055 | 0.0325 ± 0.005 | -0.0295 ± 0.039 | -0.018 ± 0.035 | 0.017 ± 0.0028 | -0.006 ± 0.03 | 0.022 ± 0.088 | 0.018 ± 0.041 | -0.0055 ± 0.047 | 0.032 ± 0.0085 | 0.0255 ± 0.044 | -0.023 ± 0.041 | -0.0075 ± 0.044 | -0.0055 ± 0.019 | -0.0205 ± 0.023 | -0.0015 ± 0.019 | -0.0175 ± 0.019 | 0.002 ± 0.064 | 0.0285 ± 0.0035 | -0.007 ± 0.011 | -0.013 ± 0.0014 | -0.0305 ± 0.039 | -0.0095 ± 0.076 |
| LPS:IL-1alpha | -0.0105 ± 0.023 | 0.0225 ± 0.03 | -0.0175 ± 0.005 | -0.0085 ± 0.012 | -0.008 ± 0.041 | 0.031 ± 0.016 | -0.0225 ± 0.071 | -0.077 ± 0.11 | -0.0655 ± 0.03 | -0.0495 ± 0.047 | 0.007 ± 0.03 | -0.022 ± 0.011 | -0.115 ± 0.028 | -0.0935 ± 0.057 | -0.005 ± 0.013 | -0.0075 ± 0.022 | -0.039 ± 0.011 | -0.0215 ± 0.023 | -0.029 ± 0.062 | 0.0025 ± 0.029 | 0.044 ± 0.069 | 0.025 ± 0.034 | 0.0195 ± 0.05 | 0.0605 ± 0.023 | -0.012 ± 0.018 | 0.0105 ± 0.033 | -0.0025 ± 0.0092 | -0.0655 ± 0.0092 | -0.14 ± 0.0035 | -0.144 ± 0.012 | -0.003 ± 0.016 |
| LPS:M-CSF | 0.0085 ± 0.037 | 0.0165 ± 0.021 | 0.028 ± 0.018 | 0.003 ± 0.016 | -0.003 ± 0.028 | -0.0015 ± 0.093 | 0.013 ± 0.034 | 0.028 ± 0.061 | 0.023 ± 0.047 | 0.0155 ± 0.086 | 0.0205 ± 0.012 | 0.0065 ± 0.049 | 0.014 ± 0.014 | 0.033 ± 0.035 | -0.0095 ± 0.061 | 0.0095 ± 0.013 | 0.034 ± 0.021 | -0.004 ± 0.035 | 0.011 ± 0.0042 | 0.009 ± 0.045 | -0.003 ± 0.021 | -0.011 ± 0.041 | -0.0065 ± 0.0092 | 0.0035 ± 0.0035 | -0.025 ± 0.0042 | -0.0625 ± 0.077 | 0.01 ± 0.018 | -0.009 ± 0.018 | -0.054 ± 0.047 | -0.0825 ± 0.066 | -0.0405 ± 0.13 |
| LPS:SRB | 0 ± 0.0057 | 0.002 ± 0.0014 | 0.015 ± 0.0085 | 0.0075 ± 0.00071 | 0.0125 ± 0.0064 | 0.019 ± 0.017 | 0.0095 ± 0.0092 | 0.003 ± 0.013 | 0.0035 ± 0.0064 | 0.003 ± 0.0042 | -0.001 ± 0.0099 | 0.0075 ± 0.016 | 0.0135 ± 0.012 | 0.007 | 0.0045 ± 0.0035 | 0.0055 ± 0.018 | -0.0085 ± 0.011 | 0 ± 0.011 | -0.0085 ± 0.025 | -0.0075 ± 0.0021 | -0.0015 ± 0.0035 | -0.0015 ± 0.018 | -0.011 ± 0.016 | -0.0115 ± 0.028 | -0.006 ± 0.0071 | 0.0055 ± 0.0021 | -0.0015 ± 0.012 | -0.029 ± 0.0099 | -0.0455 ± 0.0021 | -0.036 ± 0.0014 | -0.0075 ± 0.0035 |
